Values quoted from earlier work in patent publication US20050282786A1, “Method for reducing c-rective protein levels with non-antibacterial tetracycline formulations” (priority 2002, published 2005).
At least one structure is not confirmed: it was looked up by name or label, or the drawing left a doubt.

Tested on: C-reactive protein (CRP)
Conditions: treatment with pravastatin, recent studies (Ridker et al. 1999); cited from earlier work

For `CC[C@H](C)C(=O)O[C@H]1C[C@H](O)C=C2C=C[C@H](C)[C@H](CC[C@@H](O)C[C@@H](O)CC(=O)O)[C@H]21` [pravastatin], the “effect on CRP levels” value is listed as “reduced levels of CRP”.
